This is one part of the list.

Amino acid sequences for entries named in this document (tags omitted).
UniProt Q0JBA9, entry or part of it: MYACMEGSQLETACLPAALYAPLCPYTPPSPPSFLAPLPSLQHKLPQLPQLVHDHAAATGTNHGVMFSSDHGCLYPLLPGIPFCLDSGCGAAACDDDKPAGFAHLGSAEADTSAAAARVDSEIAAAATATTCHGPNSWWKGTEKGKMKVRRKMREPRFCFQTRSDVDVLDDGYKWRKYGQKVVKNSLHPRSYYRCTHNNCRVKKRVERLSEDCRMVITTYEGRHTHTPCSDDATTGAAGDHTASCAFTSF

For the experiment, the target named is OsWRKY34 (Oryza sativa, UniProt Q0JBA9 1-250). In words: protein-binding microarray (RPBM); PBS, 2% BSA, 51.3 ng/ul salmon testes DNA, 50 uM zinc acetate, 200 nM TF, 25 C, 1 h; high values mean tight binding. As to conditions: protein: recombinant; tags: N-terminal polyhistidine and DsRed monomer fusion (pET32a); label: CyDye5-dUTP incorporated in the synthesized complementary strand; 3' TTTTT single-stranded linker to array surface; dsDNA, one strand shown. The procedure, abridged: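 A custom Agilent array was converted to double-stranded form by primer extension with Cy5-dUTP and blocked with 2% BSA. Protein at 200 nM in PBS with 2% BSA, salmon testes DNA and 50 µM zinc acetate was applied for 1 h at 25 °C, followed by washing. The proteins were polyhistidine–DsRed N-terminal fusions of transcription factors, expressed in E. coli BL21-CodonPlus and Ni–NTA-purified. The binding signal is per-feature fluorescence intensity (arbitrary units) from an Axon 4000B scanner.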
As to “TATATCACGGACCTACTTTTCCACGCCACATCCCTAAACTCGGAGTCACCTAGTGCAG”, the binding signal was 8090 fluorescence intensity (a.u.).
On to “TTTTCTCGGTGGCCTCTGTTGTGTCTGCCATCCTGCTATGCGGAGTCACCTAGTGCAG”, for which the binding signal is 11200 fluorescence intensity (a.u.).
On to “AACACACGACGACTTCTATCCATCCTATATACCGAACCCTCGGAGTCACCTAGTGCAG”, for which the binding signal was 9960 fluorescence intensity (a.u.).
The figure for “CTCGCGGTCCACGGCCACTCCGCCCGTCCCTCTGCTCCGCCGGAGTCACCTAGTGCAG” is 11000 fluorescence intensity (a.u.); for “AGGGGTGGCTCATCTTCTCTCTCTCCACTTCTCTCCTCCACGGAGTCACCTAGTGCAG” it is 10900 fluorescence intensity (a.u.).
The figure for “TTCCACTGTGTCATGTGCAACAACCCACATGAGCGCGAGCCGGAGTCACCTAGTGCAG” is 8100 fluorescence intensity (a.u.); for “GACGAACACCGAACCTTAGATGTTGACTTGAGGGCATCACCGGAGTCACCTAGTGCAG” it is 8420 fluorescence intensity (a.u.); for “TCCACTGCTCTCAAATCTCAATACTACTACTGTTCTATCGCGGAGTCACCTAGTGCAG” it is 10600 fluorescence intensity (a.u.).
The result for “CGCTCCGCGATTCGTGTTGGTTCTTTTTTTTGTTTCTTGGCGGAGTCACCTAGTGCAG” reads 8470 fluorescence intensity (a.u.).
Take “GGGGTTTCCAAAATATGTGGGTTTTTTTGGTTGCAATGGACGGAGTCACCTAGTGCAG”: the binding signal is 10700 fluorescence intensity (a.u.).
As for “AGCTAATCTCTTTCTCCTTTAATTCATTATCCTTTGCATGCGGAGTCACCTAGTGCAG”, the binding signal is 8070 fluorescence intensity (a.u.).
As for “TGCGTGGGTCCCAACTCCGGCCGTCTTCCGCCGTTGGATCCGGAGTCACCTAGTGCAG”, the binding signal was 8940 fluorescence intensity (a.u.).
The figure for “AGTGGGGTCCTTGTTGTCAGGGTGTATGTGACTTCCAAATCGGAGTCACCTAGTGCAG” is 8780 fluorescence intensity (a.u.).
With “TATGTCCATAATATACCGTTACTTTATCAATTGTTCTACACGGAGTCACCTAGTGCAG”, the binding signal was 8930 fluorescence intensity (a.u.).
The result for “ATCTGGATCTGGAAAGCTTTTCTCTTGATTTGTTCGTAATCGGAGTCACCTAGTGCAG” reads 10000 fluorescence intensity (a.u.); that for “TAGCATTAGCATAAGGGAGGGAGGGAGGGAGGGATCATTACGGAGTCACCTAGTGCAG”, 16300 fluorescence intensity (a.u.).
The figure for “AAGCAAACTCCAATTCATTCATCAACCGCCGTCTCTTCCACGGAGTCACCTAGTGCAG” is 9130 fluorescence intensity (a.u.); for “ACTTGTTGAAAATTGATTGCTTTGTTGTTGTAGTGTTTACCGGAGTCACCTAGTGCAG” it is 10500 fluorescence intensity (a.u.).
The figure for “GACCTCGGCGCCAACCTCGGCGTGCTCTCCGGCCTCATCACGGAGTCACCTAGTGCAG” is 8060 fluorescence intensity (a.u.); for “TCACCTTCTATTTACAATTTTGTTATGGCGTGTGACGAACCGGAGTCACCTAGTGCAG” it is 9540 fluorescence intensity (a.u.).
In the case of “GCGTCCCGCACCCGTGGCTCAACCTGTTCGTCCCGGGCTCCGGAGTCACCTAGTGCAG”, the binding signal is 9950 fluorescence intensity (a.u.).
Regarding “TATCTCCCTTTTGGTTTATTTATACCCTCACCATCCAATCCGGAGTCACCTAGTGCAG”, the binding signal was 8500 fluorescence intensity (a.u.).
The figure for “CCACCCGTGGGCCTCCTCCTCTGCCGTCTCGCTTCGCCGACGGAGTCACCTAGTGCAG” is 8860 fluorescence intensity (a.u.); for “CGCGGGAATCGGCCGGCGACGTGGGGAGGTGGGGAGGAGACGGAGTCACCTAGTGCAG” it is 8900 fluorescence intensity (a.u.).
As to “CGTCGGTGTGGTATGCTTGTCGCGCGGCGGCGCGGCCGTACGGAGTCACCTAGTGCAG”, the binding signal is 8790 fluorescence intensity (a.u.).
The result for “AGATGACTCCGTTGACTTTTAAACACATGTTTGATAATTCCGGAGTCACCTAGTGCAG” reads 16200 fluorescence intensity (a.u.); that for “CCATACTTTTTAGGGTTTGTGATTTTGTCCCTACTTTTTACGGAGTCACCTAGTGCAG”, 9160 fluorescence intensity (a.u.); that for “GGTGACCATTCCTAGTTTCCTACCCCTCATGTTTTTCTTTCGGAGTCACCTAGTGCAG”, 17000 fluorescence intensity (a.u.).
Consider “CAGAAAGGGGTGGTAACTAAAGTACAGTAAACATTGTTTCCGGAGTCACCTAGTGCAG”, for which the binding signal was 8500 fluorescence intensity (a.u.).
Take “TTTTCTCGTCTCTTGTGTCTATTTGCTGTTGGATCCGCTACGGAGTCACCTAGTGCAG”: the binding signal is 10500 fluorescence intensity (a.u.).
The result for “GTTAACTATCTCATCTATATTAGTTGGAGTTTAGAAATTTCGGAGTCACCTAGTGCAG” reads 8370 fluorescence intensity (a.u.); that for “AAATCATGCTCCGCGACCGCACCTCGTCGCCGCACCACTTCGGAGTCACCTAGTGCAG”, 10400 fluorescence intensity (a.u.); that for “TCAAAATGTTGGTTGACTTTTGTCAGAGACGGTTGACTAGCGGAGTCACCTAGTGCAG”, 10400 fluorescence intensity (a.u.).
On to “CTATAGCTTCCAAGTTCCATTCCAGCTCGTATATCAGCTACGGAGTCACCTAGTGCAG”, for which the binding signal is 8040 fluorescence intensity (a.u.).
For “GGCAATGTTTTAAGCTCCACGCTAGTAGTTATTGTTTTTTCGGAGTCACCTAGTGCAG”, the binding signal is 9430 fluorescence intensity (a.u.).
The result for “AGCACCACCACCACCCCAGCGCCTCCTACTCCACCGGCTCCGGAGTCACCTAGTGCAG” reads 8830 fluorescence intensity (a.u.); that for “TTTCATAGTGTCGTTCATGGACCTTCAATTTTTAGTCATTCGGAGTCACCTAGTGCAG”, 8100 fluorescence intensity (a.u.); that for “CCGCGTCGGCGCTCGCCGTCTCCGCCTCCGATCTCCACAGCGGAGTCACCTAGTGCAG”, 8300 fluorescence intensity (a.u.).
On to “TGTTTTTTTTCTTTCCGTATCTTTTTCTTTTTTTGGTTTTCGGAGTCACCTAGTGCAG”, for which the binding signal is 19700 fluorescence intensity (a.u.).
The figure for “CTTGCCCCACAACTCCACACACACACACAAGATTAGATACCGGAGTCACCTAGTGCAG” is 8050 fluorescence intensity (a.u.).
The result for “ATCCTTCTGCATCCCGGGCACCTCCGGATCTACCGACAATCGGAGTCACCTAGTGCAG” reads 8760 fluorescence intensity (a.u.); that for “ATCTACCGTAAAAAGTTACCACCGGATACGCATCACTTCACGGAGTCACCTAGTGCAG”, 8090 fluorescence intensity (a.u.).
